Data from paper PMC7136618, “Defective nucleotide-dependent assembly and membrane fusion in Mfn2 CMT2A variants improved by Bax” (Life Science Alliance, 2020).
These are yes or no findings as the source states them, for the method shown. Binding seen in cells or lysates may run through a third protein. Some binding calls cover weakened binding; strength is not graded here. Tags and fused reporters may be left off the sequences shown.

Key:
Experiment in all cases: co-IP; two populations of isolated mitochondria (Mfn1 + Mfn2-FLAG; Mfn1-eGFP + Mfn2), 50 μg each, mixed, incubated at 37°C for 30 min with BeF3 with or without 2 mM GDP in fusion buffer; lysed in 1.5% DDM; anti-FLAG (DYKDDDDK) magnetic beads; blots with α-Mfn1 and α-Mfn2; endogenous Mfn1 is in cis, Mfn1-eGFP and endogenous Mfn2 are in trans to Mfn2-FLAG
[1] = target: T1, Mfn2^C390F with a C-terminal 3×FLAG tag (UniProt Q80U63)
T1 sequence: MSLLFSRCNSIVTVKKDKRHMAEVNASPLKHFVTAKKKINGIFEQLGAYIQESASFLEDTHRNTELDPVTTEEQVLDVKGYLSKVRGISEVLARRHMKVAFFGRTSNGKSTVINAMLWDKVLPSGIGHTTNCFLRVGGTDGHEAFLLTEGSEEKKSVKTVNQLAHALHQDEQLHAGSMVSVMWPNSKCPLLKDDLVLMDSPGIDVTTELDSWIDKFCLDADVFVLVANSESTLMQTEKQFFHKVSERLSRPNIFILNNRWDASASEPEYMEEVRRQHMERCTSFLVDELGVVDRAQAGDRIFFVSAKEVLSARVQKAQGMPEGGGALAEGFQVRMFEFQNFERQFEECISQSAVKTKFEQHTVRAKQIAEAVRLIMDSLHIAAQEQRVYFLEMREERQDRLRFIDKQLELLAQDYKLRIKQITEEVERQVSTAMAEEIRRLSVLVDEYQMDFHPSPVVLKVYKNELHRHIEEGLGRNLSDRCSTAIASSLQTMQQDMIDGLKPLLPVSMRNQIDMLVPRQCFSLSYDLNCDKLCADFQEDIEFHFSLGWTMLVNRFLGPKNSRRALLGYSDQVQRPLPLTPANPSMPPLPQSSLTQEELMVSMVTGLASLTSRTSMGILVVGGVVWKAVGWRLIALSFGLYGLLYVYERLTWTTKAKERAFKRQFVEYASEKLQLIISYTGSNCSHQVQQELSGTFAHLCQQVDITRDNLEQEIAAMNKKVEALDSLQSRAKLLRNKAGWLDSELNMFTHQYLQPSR

[2] = target: T2, Mfn2^WT with a C-terminal 3×FLAG tag (UniProt Q80U63)
T2 sequence: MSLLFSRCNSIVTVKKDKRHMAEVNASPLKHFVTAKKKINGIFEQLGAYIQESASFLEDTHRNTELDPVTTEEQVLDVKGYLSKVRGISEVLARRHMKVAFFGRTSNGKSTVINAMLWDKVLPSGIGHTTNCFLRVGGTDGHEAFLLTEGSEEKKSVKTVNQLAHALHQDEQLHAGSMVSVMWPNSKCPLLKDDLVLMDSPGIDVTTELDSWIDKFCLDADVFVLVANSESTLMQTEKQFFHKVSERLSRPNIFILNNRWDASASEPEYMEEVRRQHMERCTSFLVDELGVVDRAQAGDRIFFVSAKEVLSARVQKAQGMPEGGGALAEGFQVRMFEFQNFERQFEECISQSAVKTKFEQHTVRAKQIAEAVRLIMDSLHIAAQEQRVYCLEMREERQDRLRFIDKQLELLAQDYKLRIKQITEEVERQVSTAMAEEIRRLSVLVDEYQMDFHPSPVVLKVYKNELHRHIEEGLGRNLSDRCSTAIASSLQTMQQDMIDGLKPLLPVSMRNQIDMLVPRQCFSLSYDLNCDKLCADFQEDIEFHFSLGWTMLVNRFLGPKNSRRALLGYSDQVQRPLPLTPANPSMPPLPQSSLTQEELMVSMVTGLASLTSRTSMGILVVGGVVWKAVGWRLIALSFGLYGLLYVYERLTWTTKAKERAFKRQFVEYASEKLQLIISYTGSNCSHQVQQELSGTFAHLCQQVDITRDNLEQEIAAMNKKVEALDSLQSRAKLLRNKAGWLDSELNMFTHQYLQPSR

[3] = target: T3, Mfn2^Q386P with a C-terminal 3×FLAG tag (UniProt Q80U63)
T3 sequence: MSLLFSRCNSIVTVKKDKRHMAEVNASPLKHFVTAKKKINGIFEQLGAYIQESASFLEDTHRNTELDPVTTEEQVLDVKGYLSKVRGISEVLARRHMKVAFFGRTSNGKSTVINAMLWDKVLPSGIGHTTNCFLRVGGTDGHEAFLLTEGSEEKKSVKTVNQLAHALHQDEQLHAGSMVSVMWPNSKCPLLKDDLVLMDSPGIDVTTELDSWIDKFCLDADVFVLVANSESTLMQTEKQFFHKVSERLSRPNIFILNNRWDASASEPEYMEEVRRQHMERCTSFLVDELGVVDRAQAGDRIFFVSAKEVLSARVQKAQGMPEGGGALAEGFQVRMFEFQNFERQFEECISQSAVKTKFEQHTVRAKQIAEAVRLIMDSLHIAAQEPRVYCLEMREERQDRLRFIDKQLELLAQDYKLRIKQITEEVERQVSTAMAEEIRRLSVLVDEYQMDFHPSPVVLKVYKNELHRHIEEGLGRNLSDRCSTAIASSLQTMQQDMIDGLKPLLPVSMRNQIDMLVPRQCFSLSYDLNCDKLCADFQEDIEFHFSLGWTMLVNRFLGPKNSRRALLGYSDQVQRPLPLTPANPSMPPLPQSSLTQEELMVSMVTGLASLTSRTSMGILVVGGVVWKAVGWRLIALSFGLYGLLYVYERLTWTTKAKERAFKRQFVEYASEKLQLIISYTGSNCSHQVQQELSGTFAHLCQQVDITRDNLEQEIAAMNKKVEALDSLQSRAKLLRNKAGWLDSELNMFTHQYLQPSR

Measured: binding

B1: endogenous Mfn1 (protein, UniProt Q811U4 1-741)
chain: MAETVSPLKHFVLAKKAITAIFGQLLEFVTEGSHFVEATYRNPELDRIASEDDLVEIQGYRNKLAVIGEVLSRRHMKVAFFGRTSSGKSSVINAMLWDKVLPSGIGHTTNCFLSVEGTDGDKAYLMTEGSDEKKSVKTVNQLAHALHMDKDLKAGCLVHVFWPKAKCALLRDDLVLVDSPGTDVTTELDIWIDKFCLDADVFVLVANSESTLMNTEKHFFHKVNERLSKPNIFILNNRWDASASEPEYMEDVRRQHMERCLHFLVEELKVVSPSEARNRIFFVSAKEVLNSRKHKAQGMPEGGGALAEGFQARLQEFQNFEQTFEECISQSAVKTKFEQHTIRAKQILDTVKNILDSVNVAAAEKRVYSMEEREDQIDRLDFIRNQMNLLTLDVKKKIKEVTEEVANKVSCAMTDEICRLSVLVDEFCSEFHPTPSVLKVYKSELNKHIEDGMGRNLADRCTNEVNASILQSQQEIIENLKPLLPAGIQNKLHTLIPCKKFDLSYDLNCHKLCSDFQEDIVFRFSLGWSSLVHRFLGSTNAQRVLLGLSEPIFQVPRSLASTPTAPSNPAAPDNAAQEELMITLITGLASLTSRTSMGIIVVGGVIWKTVGWKLISVTLSMYGALYLYERLTWTTRAKERAFKQQFVNYATEKLQMIVSFTSANCSHQVQQEMATTFARLCQQVDVTQKHLEEEIARLSKEIDQLEKIQNNSKLLRNKAVQLESELENFSKQFLHPSSGES
binds: all assays above

B2: Mfn1^WT-eGFP (protein, UniProt Q811U4 1-741)
chain: MAETVSPLKHFVLAKKAITAIFGQLLEFVTEGSHFVEATYRNPELDRIASEDDLVEIQGYRNKLAVIGEVLSRRHMKVAFFGRTSSGKSSVINAMLWDKVLPSGIGHTTNCFLSVEGTDGDKAYLMTEGSDEKKSVKTVNQLAHALHMDKDLKAGCLVHVFWPKAKCALLRDDLVLVDSPGTDVTTELDIWIDKFCLDADVFVLVANSESTLMNTEKHFFHKVNERLSKPNIFILNNRWDASASEPEYMEDVRRQHMERCLHFLVEELKVVSPSEARNRIFFVSAKEVLNSRKHKAQGMPEGGGALAEGFQARLQEFQNFEQTFEECISQSAVKTKFEQHTIRAKQILDTVKNILDSVNVAAAEKRVYSMEEREDQIDRLDFIRNQMNLLTLDVKKKIKEVTEEVANKVSCAMTDEICRLSVLVDEFCSEFHPTPSVLKVYKSELNKHIEDGMGRNLADRCTNEVNASILQSQQEIIENLKPLLPAGIQNKLHTLIPCKKFDLSYDLNCHKLCSDFQEDIVFRFSLGWSSLVHRFLGSTNAQRVLLGLSEPIFQVPRSLASTPTAPSNPAAPDNAAQEELMITLITGLASLTSRTSMGIIVVGGVIWKTVGWKLISVTLSMYGALYLYERLTWTTRAKERAFKQQFVNYATEKLQMIVSFTSANCSHQVQQEMATTFARLCQQVDVTQKHLEEEIARLSKEIDQLEKIQNNSKLLRNKAVQLESELENFSKQFLHPSSGES
binds: all assays above
